Source: publication PMC4214792
Results are given in words; binding and its absence hold for the method and conditions named. For some of these results: In cells and extracts the contact can be indirect. Some entries that bind do so weakly or less than the wild type.

The chains behind the UniProt entries cited, without tags or fusion partners.
UniProt P61769: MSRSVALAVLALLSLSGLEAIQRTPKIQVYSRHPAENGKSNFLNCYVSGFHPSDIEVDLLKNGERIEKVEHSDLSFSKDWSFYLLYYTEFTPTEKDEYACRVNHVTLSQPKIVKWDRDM
UniProt P9WNK5: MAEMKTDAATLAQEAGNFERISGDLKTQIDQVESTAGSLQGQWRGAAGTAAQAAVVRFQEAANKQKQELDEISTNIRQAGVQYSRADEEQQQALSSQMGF

Legend:
[1] = biological target: β2M present in pleural fluid (human (endogenous in pleural fluid)) (UniProt P61769); experiment: ELISA
[2] = biological target: β2M naturally expressed in THP-1 macrophages (human (endogenous in THP-1)) (UniProt P61769); experiment: co-IP; only the binder purified

Substance | binding [1] | binding [2]
ESAT-6 present in pleural fluid of pleural TB patients (from UniProt P9WNK7 1-95) | binds | 
His-tagged CFP-10 (pET23a) (from UniProt P9WNK5 1-100) |  | no binding
recombinant ESAT-6:CFP-10 complex (from UniProt P9WNK7;P9WNK5) |  | binds
recombinant His-tagged ESAT-6 (pET23a-ESAT-6) (from UniProt P9WNK7 1-95) |  | binds
